Experimental data: PMC3599065
These are yes or no findings as the source states them, for the method shown. Binding seen in cells or lysates may run through a third protein. These calls come from enrichment with a bait or labelling near it, and not all partners need be listed.

Target: T1, TAP-JIP1 (in Neuro2a) (mouse) (UniProt Q9WVI9)
T1 sequence: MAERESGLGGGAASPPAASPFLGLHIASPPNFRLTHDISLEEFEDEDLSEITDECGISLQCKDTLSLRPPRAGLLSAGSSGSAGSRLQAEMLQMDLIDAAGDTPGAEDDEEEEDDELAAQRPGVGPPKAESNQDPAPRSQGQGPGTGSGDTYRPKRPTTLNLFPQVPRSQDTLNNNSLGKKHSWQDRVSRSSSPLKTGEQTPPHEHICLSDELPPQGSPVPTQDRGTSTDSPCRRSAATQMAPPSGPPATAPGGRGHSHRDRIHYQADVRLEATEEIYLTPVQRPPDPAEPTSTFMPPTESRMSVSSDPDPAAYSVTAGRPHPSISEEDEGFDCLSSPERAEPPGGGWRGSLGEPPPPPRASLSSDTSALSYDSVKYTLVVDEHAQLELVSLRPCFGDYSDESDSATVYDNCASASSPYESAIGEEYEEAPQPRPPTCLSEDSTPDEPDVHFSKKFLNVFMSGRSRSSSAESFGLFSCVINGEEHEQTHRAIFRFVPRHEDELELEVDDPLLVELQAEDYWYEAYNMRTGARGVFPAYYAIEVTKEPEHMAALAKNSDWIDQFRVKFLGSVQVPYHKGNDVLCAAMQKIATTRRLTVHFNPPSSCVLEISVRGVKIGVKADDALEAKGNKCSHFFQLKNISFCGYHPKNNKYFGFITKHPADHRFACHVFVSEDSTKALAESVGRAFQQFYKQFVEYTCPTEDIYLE
Assay: affinity purification with mass spectrometry; TAP-JIP1 expressed in Neuro2a cells (retinoic acid), collected on streptavidin sepharose, SDS-PAGE, the ~180 kDa band digested with trypsin and analysed by MALDI TOF/TOF

B1: JIP3 (endogenous, Neuro2a) (protein, UniProt Q9ESN9 1-1337)
chain: MMEIQMDEGGGVVVYQDDYCSGSVMSERVSGLAGSIYREFERLIHCYDEEVVKELMPLVVNVLENLDSVLSENQEHEVELELLREDNEQLLTQYEREKALRKQAEEKFIEFEDALEQEKKELQIQVEHYEFQTRQLELKAKNYADQISRLEERESEMKKEYNALHQRHTEMIQTYVEHIERSKMQQVGGSGQTESSLPGRSRKERPTSLNVFPLADGMVRAQMGGKLVPAGDHWHLSDLGQLQSSSSYQCPNDEMSESGQSSAAATPSTTGTKSNTPTSSVPSAAVTPLNESLQPLGDYVSVTKNNKQAREKRNSRNMEVQVTQEMRNVSIGMGSSDEWSDVQDIIDSTPELDVCPETRLERTGSSPTQGIVNKAFGINTDSLYHELSTAGSEVIGDVDEGADLLGEFSVRDDFFGMGKEVGNLLLENSQLLETKNALNVVKNDLIAKVDQLSGEQEVLKGELEAAKQAKVKLENRIKELEEELKRVKSEAVTARREPREEVEDVSSYLCTELDKIPMAQRRRFTRVEMARVLMERNQYKERLMELQEAVRWTEMIRASREHPSVQEKKKSTIWQFFSRLFSSSSSPPPAKRSYPSVNIHYKSPTAAGFSQRRSHALCQISAGSRPLEFFPDDDCTSSARREQKREQYRQVREHVRNDDGRLQACGWSLPAKYKQLSPNGGQEDTRMKNVPVPVYCRPLVEKDPSTKLWCAAGVNLSGWKPHEEDSSNGPKPVPGRDPLTCDREGEGEPKSTHPSPEKKKAKETPEADATSSRVWILTSTLTTSKVVIIDANQPGTIVDQFTVCNAHVLCISSIPAASDSDYPPGEMFLDSDVNPEDSGADGVLAGITLVGCATRCNVPRSNCSSRGDTPVLDKGQGDVATTANGKVNPSQSTEEATEATEVPDPGPSESEATTVRPGPLTEHVFTDPAPTPSSSTQPASENGSESNGTIVQPQVEPSGELSTTTSSAAPTMWLGAQNGWLYVHSAVANWKKCLHSIKLKDSVLSLVHVKGRVLVALADGTLAIFHRGEDGQWDLSNYHLMDLGHPHHSIRCMAVVNDRVWCGYKNKVHVIQPKTMQIEKSFDAHPRRESQVRQLAWIGDGVWVSIRLDSTLRLYHAHTHQHLQDVDIEPYVSKMLGTGKLGFSFVRITALLIAGNRLWVGTGNGVVISIPLTETVVLHRGQLLGLRANKTSPTSGEGTRPGGIIHVYGDDSSDKAASSFIPYCSMAQAQLCFHGHRDAVKFFVSVPGNVLATLNGSVLDSPSEGPGPAAPAADAEGQKLKNALVLSGGEGYIDFRIGDGEDDETEECAGDVNQTKPSLSKAERSHIIVWQVSYTPE
binding: binds
